Assay results as given in PubChem BioAssay AID256 (DTP/NCI, 2004).
The list is a part of this screen's results and no random one: it is rich in T/C values a quarter to a half above the control, in often repeated tests (any T/C) and in doses without a T/C. Other doses and runs of a compound stand elsewhere. T/C is the treated group as % of the vehicle group. Some entries give survivors of the animals treated and no T/C: the source holds a T/C of zero for them, seemingly a mark for toxic or unscored doses. Some survivor counts are full or nearly so, which does not show that the dose was tolerated: the source hardly ever lists a survival T/C far under the control, and the zero likely stands for such cases as well. Survivors were counted at the toxicity check, usually on the fifth day, unless a day is given; later deaths do not show. Schedule codes are those of the source, taken here to give the interval after Q, in days (D) or hours (H), and the number of doses after X. Some entries were tested several times; their values stand side by side, smallest first. For survival time, this PubChem deposit counts one and a half times the control or more as active, and values a quarter to a half above the control carry no call in these data; other NCI protocols may use other cut-offs. Some T/C values carry the count of animals alive at the toxicity check (mostly the fifth day); without a count, all were alive then.

Tested on: CD2F1 mice, L1210 leukemia ip, survival T/C
Assay: NCI In Vivo Anticancer Drug Screen. Data for tumor model L1210 Leukemia (intraperitoneal) in CD2F1 (CDF1) mice
Conditions: higher T/C = longer survival
Procedure, shortened: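 Ratio T/C, where T is the treated-group value and C the vehicle-dosed control value, from mice implanted with a transplantable tumor.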

[1] = T/C endpoint: mean survival time, dose: 200.0 mg/kg/injection, schedule: Q01DX009 (ip), vehicle: saline with Tween-80
[2] = T/C endpoint: mean survival time, dose: 400.0 mg/kg/injection, schedule: Q01DX009 (ip), vehicle: saline with Tween-80
[3] = T/C endpoint: mean survival time, dose: 200.0 mg/kg/injection, schedule: Q04DX003 (ip), vehicle: saline with Tween-80
[4] = T/C endpoint: median survival time, dose: 25.0 mg/kg/injection, schedule: Q01DX009 (ip), vehicle: Klucel (hydroxypropylcellulose) (HPC)
[5] = T/C endpoint: mean survival time, dose: 100.0 mg/kg/injection, schedule: Q04DX003 (ip), vehicle: saline with Tween-80
[6] = T/C endpoint: mean survival time, dose: 400.0 mg/kg/injection, schedule: Q04DX003 (ip), vehicle: saline with Tween-80
[7] = T/C endpoint: mean survival time, dose: 100.0 mg/kg/injection, schedule: Q04DX002 (ip), vehicle: saline with Tween-80

Compound: O=C1C(O)=C(c2ccccc2C(=O)O)C(=O)C(O)=C1c1ccccc1C(=O)O
- survivor count [1]: 1 of 3
- survivor count [2]: 0 of 3

Compound: CN(C)N=Nc1ccc(S(=O)(=O)Nc2ncccn2)cc1
- survivor count [1]: 6 of 6
- T/C [3]: 129 % of control
- survivor count [2]: 5 of 6

Compound: COc1cc(C2c3cc4c(cc3C(OC3CCCCO3)C3COC(=O)C23)OCO4)cc(OC)c1OC (stereo not drawn)
- T/C (T/C endpoint: median survival time, dose: 6.25 mg/kg/injection, schedule: Q01DX009 (ip), vehicle: Klucel (hydroxypropylcellulose) (HPC)): 138 % of control
- T/C (T/C endpoint: median survival time, dose: 12.5 mg/kg/injection, schedule: Q01DX009 (ip), vehicle: Klucel (hydroxypropylcellulose) (HPC)): 143 % of control
- T/C [4]: 134 % of control
- survivor count [4]: 3 of 6

Compound: CCn1c(=N)sc2ccc(C(=O)OC)cc21
- survivor count [5]: 3 of 6
- survivor count [6]: 0 of 6

Compound: CC(C)(C)c1ccccc1O[Si](C)(C)C
- survivor count [1]: 2 of 6
- survivor count [6]: 5 of 6

Compound: O=C(O)c1cc2ccccc2o1
- survivor count (T/C endpoint: mean survival time, dose: 400.0 mg/kg/injection, schedule: Q01DX001 (ip), vehicle: saline with Tween-80): 0 of 3
- survivor count [6]: 6 of 6

Compound: CN(C)c1nc(N(C)C)nc(N(C)C)n1
- survivor count [2]: 0 of 6
- survivor count (T/C endpoint: mean survival time, dose: 800.0 mg/kg/injection, schedule: Q01DX001 (ip), vehicle: saline with Tween-80): 0 of 6
- survivor count (T/C endpoint: median survival time, dose: 64.0 mg/kg/injection, schedule: Q03HX008 (ip), vehicle: Klucel (hydroxypropylcellulose) (HPC)): 10 of 10
- survivor count (T/C endpoint: median survival time, dose: 64.0 mg/kg/injection, schedule: Q03HX016 (ip), vehicle: Klucel (hydroxypropylcellulose) (HPC)): 10 of 10
- survivor count (T/C endpoint: median survival time, dose: 64.0 mg/kg/injection, schedule: Q03HX024 (ip), vehicle: Klucel (hydroxypropylcellulose) (HPC)): 10 of 10
- survivor count (T/C endpoint: median survival time, dose: 128.0 mg/kg/injection, schedule: Q03HX008 (ip), vehicle: Klucel (hydroxypropylcellulose) (HPC)): 0 of 10
- survivor count (T/C endpoint: median survival time, dose: 128.0 mg/kg/injection, schedule: Q03HX016 (ip), vehicle: Klucel (hydroxypropylcellulose) (HPC)): 0 of 10
- survivor count (T/C endpoint: median survival time, dose: 128.0 mg/kg/injection, schedule: Q03HX024 (ip), vehicle: Klucel (hydroxypropylcellulose) (HPC)): 0 of 10
- survivor count (T/C endpoint: median survival time, dose: 256.0 mg/kg/injection, schedule: Q01DX009 (ip), vehicle: Klucel (hydroxypropylcellulose) (HPC)): 7 of 10
- survivor count (T/C endpoint: median survival time, dose: 512.0 mg/kg/injection, schedule: Q01DX001 (ip), vehicle: Klucel (hydroxypropylcellulose) (HPC)): 10 of 10
- survivor count (T/C endpoint: median survival time, dose: 512.0 mg/kg/injection, schedule: Q01DX009 (ip), vehicle: Klucel (hydroxypropylcellulose) (HPC)): 0 of 10
- survivor count (T/C endpoint: median survival time, dose: 512.0 mg/kg/injection, schedule: Q04DX003 (ip), vehicle: Klucel (hydroxypropylcellulose) (HPC)): 8 of 10
- survivor count (T/C endpoint: median survival time, dose: 512.0 mg/kg/injection, schedule: Q08DX002 (ip), vehicle: Klucel (hydroxypropylcellulose) (HPC)): 8 of 10
- survivor count (T/C endpoint: median survival time, dose: 1024.0 mg/kg/injection, schedule: Q01DX001 (ip), vehicle: Klucel (hydroxypropylcellulose) (HPC)): 2 of 10
- survivor count (T/C endpoint: median survival time, dose: 1024.0 mg/kg/injection, schedule: Q04DX003 (ip), vehicle: Klucel (hydroxypropylcellulose) (HPC)): 0 of 10
- survivor count (T/C endpoint: median survival time, dose: 1024.0 mg/kg/injection, schedule: Q08DX002 (ip), vehicle: Klucel (hydroxypropylcellulose) (HPC)): 0 of 10

Compound: CC(=O)Nc1ccn(C2OC(CO)C(O)C2O)c(=O)n1 (stereo not drawn)
- T/C (T/C endpoint: mean survival time, dose: 6.25 mg/kg/injection, schedule: Q03HX024 (ip), vehicle: saline): 138 % of control
- T/C (T/C endpoint: mean survival time, dose: 18.8 mg/kg/injection, schedule: Q01DX008 (ip), vehicle: saline): 129 % of control
- T/C (T/C endpoint: mean survival time, dose: 200.0 mg/kg/injection, schedule: Q04DX003 (ip), vehicle: saline): 126 % of control
- T/C (T/C endpoint: mean survival time, dose: 400.0 mg/kg/injection, schedule: Q04DX003 (ip), vehicle: saline): 126 % of control

Compound: OC(c1ccccc1)c1cc(-c2ccccc2)c(-c2ccccc2)cc1C(O)c1ccccc1 (stereo not drawn)
- survivor count (T/C endpoint: mean survival time, dose: 50.0 mg/kg/injection, schedule: Q04DX003 (ip), vehicle: saline with Tween-80): 5 of 6
- survivor count [5]: 2 of 6
- survivor count [3]: 1 of 6
- survivor count [6]: 0 of 6

Compound: CC(/C=N/O)=N\O.CC(/C=N/O)=N\O.[Pd]
- survivor count (T/C endpoint: mean survival time, dose: 6.25 mg/kg/injection, schedule: Q01DX009 (ip), vehicle: saline with Tween-80): 2 of 3
- survivor count (T/C endpoint: mean survival time, dose: 6.25 mg/kg/injection, schedule: Q04DX002 (ip), vehicle: saline with Tween-80): 2 of 3
- survivor count (T/C endpoint: mean survival time, dose: 12.5 mg/kg/injection, schedule: Q04DX002 (ip), vehicle: saline with Tween-80): 1 of 3
- survivor count (T/C endpoint: mean survival time, dose: 25.0 mg/kg/injection, schedule: Q04DX002 (ip), vehicle: saline with Tween-80): 0 of 3
- survivor count (T/C endpoint: mean survival time, dose: 50.0 mg/kg/injection, schedule: Q04DX002 (ip), vehicle: saline with Tween-80): 2 of 3
- survivor count [7]: 0 of 3
- survivor count (T/C endpoint: mean survival time, dose: 200.0 mg/kg/injection, schedule: Q04DX002 (ip), vehicle: saline with Tween-80): 0 of 3
- survivor count (T/C endpoint: mean survival time, dose: 400.0 mg/kg/injection, schedule: Q04DX002 (ip), vehicle: saline with Tween-80): 0 of 3

Compound: OC1CC2CCC(C1)N2CCCN1c2ccccc2Sc2ccc(Cl)cc21 (stereo not drawn)
- survivor count (T/C endpoint: mean survival time, dose: 60.0 mg/kg/injection, schedule: Q01DX009 (ip), vehicle: saline): 2 of 6
- survivor count (T/C endpoint: mean survival time, dose: 133.0 mg/kg/injection, schedule: Q04DX003 (ip), vehicle: saline with Tween-80): 1 of 6
- survivor count [3]: 0 of 6
- survivor count (T/C endpoint: mean survival time, dose: 300.0 mg/kg/injection, schedule: Q04DX003 (ip), vehicle: saline with Tween-80): 0 of 6

Compound: Clc1ccc([PH+](c2ccc(Cl)cc2)c2ccc(Cl)cc2)cc1.Clc1ccc([PH+](c2ccc(Cl)cc2)c2ccc(Cl)cc2)cc1.[Cl][Hg][Cl]
- survivor count (T/C endpoint: mean survival time, dose: 25.0 mg/kg/injection, schedule: Q01DX009 (ip), vehicle: Klucel (hydroxypropylcellulose) (HPC)): 1 of 3

Compound: CCCCCCCCOC(=O)c1cc([N+](=O)[O-])c(Sc2ncnc3nc[nH]c23)c([N+](=O)[O-])c1
- T/C (T/C endpoint: mean survival time, dose: 16.5 mg/kg/injection, schedule: Q01DX005 (ip), vehicle: other): 140 % of control
- T/C (T/C endpoint: mean survival time, dose: 25.0 mg/kg/injection, schedule: Q01DX005 (ip), vehicle: other): 149 % of control [5 of 6 alive]
- T/C (T/C endpoint: mean survival time, dose: 37.5 mg/kg/injection, schedule: Q01DX005 (ip), vehicle: other): 140 % of control
- survivor count (T/C endpoint: mean survival time, dose: 200.0 mg/kg/injection, schedule: Q01DX005 (ip), vehicle: other): 3 of 3

Compound: C=C1COC(O)(C2OCOC(C3CC(=O)NC(=O)C3)C2O)C1C (stereo not drawn)
- T/C (T/C endpoint: median survival time, dose: 16.0 micrograms/kg/injection, schedule: Q01DX009 (ip), vehicle: water): 133 % of control
- T/C (T/C endpoint: median survival time, dose: 32.0 micrograms/kg/injection, schedule: Q01DX009 (ip), vehicle: water): 133 and 135 % of control
- survivor count (T/C endpoint: median survival time, dose: 64.0 micrograms/kg/injection, schedule: Q01DX009 (ip), vehicle: saline): 4 of 6
- survivor count (T/C endpoint: median survival time, dose: 64.0 micrograms/kg/injection, schedule: Q01DX009 (ip), vehicle: water): 2 of 6 and 3 of 6
- survivor count (T/C endpoint: median survival time, dose: 128.0 micrograms/kg/injection, schedule: Q01DX009 (ip), vehicle: water): 0 of 6

Compound: Cc1cc(F)ccc1NC(=O)Nc1ccc(F)cc1C
- survivor count [7]: 3 of 3

Compound: CCOP(=O)(N1CC1(C)C)N1CC1(C)C (stereo not drawn)
- T/C (T/C endpoint: mean survival time, dose: 20.0 mg/kg/injection, schedule: Q01DX009 (ip), vehicle: saline): 132 % of control

Compound: CC(C)NC(=O)N(c1ccccc1)C(C)C
- survivor count [2]: 4 of 6

Compound: O=C(O)C(O)C(O)C(=O)O (stereo not drawn)
- survivor count [2]: 0 of 6

Compound: O=C1Nc2ccccc2C(=O)Nc2ccccc21
- survivor count (T/C endpoint: mean survival time, dose: 400.0 mg/kg/injection, schedule: Q01DX009 (ip), vehicle: Klucel (hydroxypropylcellulose) (HPC)): 6 of 6

Compound: CN=NCCO
- survivor count (T/C endpoint: mean survival time, dose: 200.0 mg/kg/injection, schedule: Q01DX009 (ip), vehicle: saline): 0 of 6
- survivor count (T/C endpoint: mean survival time, dose: 400.0 mg/kg/injection, schedule: Q01DX001 (ip), vehicle: saline): 0 of 6

Compound: O=C(CBr)CCS(=O)(=O)c1ccc(Cl)cc1
- survivor count [5]: 0 of 6
- survivor count [3]: 0 of 6
- survivor count [6]: 0 of 6

Compound: O=P1(N(CCCl)CCCl)OCCC(OO)N1CCCl (stereo not drawn)
- T/C (T/C endpoint: mean survival time, dose: 50.0 mg/kg/injection, schedule: Q01DX001 (ip), vehicle: Klucel (hydroxypropylcellulose) (HPC)): 147 % of control
- survivor count (T/C endpoint: mean survival time, dose: 200.0 mg/kg/injection, schedule: Q01DX001 (ip), vehicle: DMSO): 0 of 2
